Source: ChEMBL document CHEMBL3988442, “University of Dundee, Small-Polar-MMV Screening Library” (2021).

By UniProt entry, the sequences of proteins in these tests, tags left out. Residues count along the entry.
UniProt I6X8D2, whole entry: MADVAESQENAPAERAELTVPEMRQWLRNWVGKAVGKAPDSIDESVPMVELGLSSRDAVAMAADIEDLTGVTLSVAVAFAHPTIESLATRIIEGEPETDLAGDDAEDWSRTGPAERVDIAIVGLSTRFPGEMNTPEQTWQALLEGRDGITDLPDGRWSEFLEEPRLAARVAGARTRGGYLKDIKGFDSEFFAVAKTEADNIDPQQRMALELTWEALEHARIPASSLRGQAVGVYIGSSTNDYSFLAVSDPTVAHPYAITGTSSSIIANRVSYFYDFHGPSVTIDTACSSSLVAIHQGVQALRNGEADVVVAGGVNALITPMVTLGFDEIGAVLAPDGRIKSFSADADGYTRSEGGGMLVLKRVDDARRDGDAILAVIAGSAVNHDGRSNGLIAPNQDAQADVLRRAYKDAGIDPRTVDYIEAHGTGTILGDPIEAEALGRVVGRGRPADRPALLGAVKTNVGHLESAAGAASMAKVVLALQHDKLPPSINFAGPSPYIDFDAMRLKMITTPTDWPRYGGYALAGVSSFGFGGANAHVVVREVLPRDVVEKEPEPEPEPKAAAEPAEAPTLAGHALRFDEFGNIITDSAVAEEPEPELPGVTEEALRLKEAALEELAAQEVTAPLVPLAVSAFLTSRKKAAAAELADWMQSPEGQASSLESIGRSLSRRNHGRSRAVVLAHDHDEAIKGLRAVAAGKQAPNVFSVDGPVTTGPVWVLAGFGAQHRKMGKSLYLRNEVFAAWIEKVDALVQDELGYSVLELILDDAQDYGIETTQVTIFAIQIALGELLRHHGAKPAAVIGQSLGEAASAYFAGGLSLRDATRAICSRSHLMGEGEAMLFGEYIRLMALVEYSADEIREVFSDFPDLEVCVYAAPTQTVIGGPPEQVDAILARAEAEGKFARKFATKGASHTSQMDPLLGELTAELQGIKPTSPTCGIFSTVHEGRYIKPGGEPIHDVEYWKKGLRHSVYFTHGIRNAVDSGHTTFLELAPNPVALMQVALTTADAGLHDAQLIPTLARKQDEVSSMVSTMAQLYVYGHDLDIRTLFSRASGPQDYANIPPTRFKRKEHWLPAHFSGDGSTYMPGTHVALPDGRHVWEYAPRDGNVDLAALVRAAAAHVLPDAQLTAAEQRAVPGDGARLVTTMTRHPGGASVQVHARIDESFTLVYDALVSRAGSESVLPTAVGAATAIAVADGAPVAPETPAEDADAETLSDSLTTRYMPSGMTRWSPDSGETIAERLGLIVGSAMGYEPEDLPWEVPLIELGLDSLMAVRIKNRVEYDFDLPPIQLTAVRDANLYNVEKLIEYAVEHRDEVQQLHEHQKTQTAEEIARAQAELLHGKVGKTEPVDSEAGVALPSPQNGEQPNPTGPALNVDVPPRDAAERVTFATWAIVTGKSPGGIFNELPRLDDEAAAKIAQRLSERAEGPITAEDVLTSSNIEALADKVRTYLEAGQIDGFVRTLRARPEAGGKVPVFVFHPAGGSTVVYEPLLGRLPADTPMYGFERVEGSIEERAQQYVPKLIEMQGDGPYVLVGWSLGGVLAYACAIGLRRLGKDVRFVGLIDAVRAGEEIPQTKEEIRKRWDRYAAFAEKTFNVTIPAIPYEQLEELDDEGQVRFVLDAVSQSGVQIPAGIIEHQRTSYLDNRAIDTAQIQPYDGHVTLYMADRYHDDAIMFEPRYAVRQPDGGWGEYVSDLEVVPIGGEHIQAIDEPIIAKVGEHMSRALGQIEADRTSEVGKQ
UniProt A4I591, 1-473: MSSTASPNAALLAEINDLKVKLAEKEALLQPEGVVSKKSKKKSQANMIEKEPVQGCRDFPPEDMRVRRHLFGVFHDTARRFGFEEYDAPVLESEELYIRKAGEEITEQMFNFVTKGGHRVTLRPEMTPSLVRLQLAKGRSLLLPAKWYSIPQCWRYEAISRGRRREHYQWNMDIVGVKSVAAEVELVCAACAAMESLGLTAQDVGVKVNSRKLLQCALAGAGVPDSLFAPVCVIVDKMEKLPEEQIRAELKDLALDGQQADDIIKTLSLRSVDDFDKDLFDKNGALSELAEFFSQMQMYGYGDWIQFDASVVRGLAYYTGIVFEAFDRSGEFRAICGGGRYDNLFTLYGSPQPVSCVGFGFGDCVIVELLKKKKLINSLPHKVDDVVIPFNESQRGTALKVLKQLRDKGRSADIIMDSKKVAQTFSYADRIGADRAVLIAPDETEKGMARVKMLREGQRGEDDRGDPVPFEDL
UniProt P9WPC5, whole entry: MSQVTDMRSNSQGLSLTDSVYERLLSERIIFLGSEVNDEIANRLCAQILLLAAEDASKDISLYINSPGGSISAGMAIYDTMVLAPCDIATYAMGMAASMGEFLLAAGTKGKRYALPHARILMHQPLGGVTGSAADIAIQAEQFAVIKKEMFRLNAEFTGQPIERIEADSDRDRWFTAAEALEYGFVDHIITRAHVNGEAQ
UniProt P9WPC3, whole entry partner: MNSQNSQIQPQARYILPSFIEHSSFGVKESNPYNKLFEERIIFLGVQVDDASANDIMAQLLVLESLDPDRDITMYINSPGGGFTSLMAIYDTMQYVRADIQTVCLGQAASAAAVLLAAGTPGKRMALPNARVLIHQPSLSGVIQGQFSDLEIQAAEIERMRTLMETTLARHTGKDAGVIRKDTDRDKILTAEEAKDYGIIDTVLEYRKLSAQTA
UniProt P9WNZ1, whole entry: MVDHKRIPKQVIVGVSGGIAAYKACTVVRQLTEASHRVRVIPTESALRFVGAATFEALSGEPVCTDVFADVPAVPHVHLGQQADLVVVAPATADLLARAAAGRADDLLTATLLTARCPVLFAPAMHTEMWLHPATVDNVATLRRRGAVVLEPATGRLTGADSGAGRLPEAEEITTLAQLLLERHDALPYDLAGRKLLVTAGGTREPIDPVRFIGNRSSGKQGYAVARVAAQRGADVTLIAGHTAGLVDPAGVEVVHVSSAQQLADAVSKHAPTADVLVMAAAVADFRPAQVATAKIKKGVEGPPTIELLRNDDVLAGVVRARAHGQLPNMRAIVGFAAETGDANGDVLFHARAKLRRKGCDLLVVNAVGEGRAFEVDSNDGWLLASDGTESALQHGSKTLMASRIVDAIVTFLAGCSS

A: 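Polyketide synthase Pks13, Mycobacterium tuberculosis (UniProt I6X8D2). Enzyme assay of the thioesterase domain of polyketide synthase 13; the read-out is not stated. Compounds at 30 µM. Higher reads as stronger inhibition (inferred from which compounds were picked for retests). About 67,000 compounds were tested under these conditions; 0.46% (about 300) showed 50% or more at least once.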
B: 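Enzyme assay of histidyl-tRNA synthetase; the read-out is not stated. Target: Histidine-tRNA ligase, Leishmania infantum (UniProt A4I591). Compounds at 30 µM. The record gives no direction; compounds that gave an IC50 in retests scored well above the rest, so higher reads as stronger inhibition. The assay is labelled LdHisRS but filed under L. infantum. Size under these conditions: about 69,000 compounds, about 410 of them at 50% or above in at least one test.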
C: 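Cell assay of Leishmania donovani living inside macrophages; the read-out is not stated. Concentration: 30 µM. The record gives no direction; compounds that gave an IC50 in retests scored well above the rest, so higher reads as stronger inhibition. About 69,000 compounds were tested under these conditions; 1.5% (about 1,000) showed 50% or more at least once.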
D: 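ClpP1P2, Mycobacterium tuberculosis (UniProt P9WPC5 and UniProt P9WPC3). Protease assay of ClpP1P2, read by the AMC dye that it sets free. Compounds at 50 µM. Direction is inferred from only a few compounds that gave an IC50; most scored high, so higher reads as stronger inhibition. Most other retested compounds had strongly negative values. Of about 69,000 compounds tested this way, about 10 (0.015%) reached 50% or more in at least one test.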
E: 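Assay of Toxoplasma gondii numbers, read through their beta-galactosidase reporter with a colour substrate. Tested at 10 µM. The record gives no direction; the compounds picked for IC50 retests had high values, so higher reads as fewer parasites. Size under these conditions: about 67,000 compounds, about 260 of them at 50% or above in at least one test.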
F: 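Enzyme assay of CoaBC with a phosphate dye (Biomol Green) read at 650 nm. Target: Coenzyme A biosynthesis protein CoaBC, Mycobacterium tuberculosis (UniProt P9WNZ1). Concentration: 30 µM. Higher reads as stronger inhibition, judged from the few compounds that gave an IC50. Most strong results did not repeat in a second test. About 67,000 compounds were tested under these conditions; 0.06% (about 40) showed 50% or more at least once.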

Values are the deposited “Percent Effect”, in %. The record does not define 0% and 100%; most values in the screen are far below 50% and negative numbers occur (in some assays of this library far below -100). This is an unselected part of the compounds tested. Two or more numbers in one place are separate tests of the same structure; such repeats can differ widely.

{"compound": "O=C(O)C(F)(F)F.[H][C@]12CN(CC(C)C)C[C@@]1([H])S(=O)(=O)CC[C@@H]2C(=O)NCC(C)C", "C": -1.712, "E": 13.74}
{"compound": "[H][C@@]12CCC(=O)N(CC(C)C)[C@]1([H])CCN(C(=O)Cn1ccc(=O)cc1)C2", "C": 8.149, "E": -15.31}
{"compound": "COc1c(CNCCC(=O)NC2CCCCC2)c(C(C)C)nn1C", "A": -15.58, "B": 18.75, "C": 32.82, "D": -40.4, "E": 0.5339, "F": 0.894}
{"compound": "COCCN1CCC2(CC1)CC(c1cccnc1)CO2.O=C(O)C(F)(F)F", "stereo": "stereo unspecified", "C": 2.231, "E": 17.45}
{"compound": "COc1ccc(NC(=O)N2CCCC(CO)C2)c(C)c1", "stereo": "stereo unspecified", "A": 3.178, "B": 1.55, "C": 10.37, "D": -4.213, "E": 7.735, "F": 1.843}
{"compound": "Cc1cc(C(=O)N(Cc2c(C)nn(C)c2C)C(C)C)nc(C)n1", "A": -1.101, "B": 19.74, "C": -18.83, "D": 6.976, "E": -2.735, "F": 0.3226}
{"compound": "CN(C)CCN1C(=O)CCC12CCN(Cc1cccs1)CC2.O=C(O)C(F)(F)F.O=C(O)C(F)(F)F", "C": 0.1136, "E": -0.7027}
{"compound": "Cc1ncc(CN(C)C(=O)Nc2cccc(C(=O)N3CCOCC3)c2)s1", "A": -37.42, "B": 28.57, "C": 13.28, "D": 1.669, "E": -0.3371}
{"compound": "Cc1ccc(N(C)S(=O)(=O)c2cc(C(=O)O)cs2)cc1", "A": -9.562, "B": 8.772, "C": -18.29, "D": 4.513, "E": -15.34, "F": 8.075}
{"compound": "c1csc(CN2CCCC3(COCCN(Cc4c[nH]nn4)C3)C2)c1", "stereo": "stereo unspecified", "A": -67.81, "B": 20, "D": 10.93, "F": 5.212}
{"compound": "Cc1nc2ccccn2c1CC(=O)N[C@@H]1CC[C@@H](N2CCOCC2)[C@@H]1O", "A": -5.953, "B": -5.263, "C": "-3.036 & 2.165", "D": -0.4386, "E": -8.527, "F": 2.92}
{"compound": "Cc1noc(C)c1CN1CCC2(CC1)NC(=O)CC2c1ccccc1.O=C(O)C(F)(F)F", "stereo": "stereo unspecified", "C": 27.89, "E": -1.787}
{"compound": "CN(C)C[C@H]1OC[C@@H]2CN(C(=O)NCc3cccnc3)CC[C@@H]21", "A": 1.804, "B": 20, "D": 2.48, "F": -16.19}
{"compound": "O=C(O)CC(O)(CC(=O)O)C(=O)O.c1ccc([C@@H]2CN(Cc3cccnc3)C[C@H]2c2cc[nH]n2)cc1", "C": 10.11, "E": -18.54}
{"compound": "CCc1ccc(C(=O)N2CCN(CCO)CC2)o1", "A": 11.04, "B": 10.91, "C": -6.088, "D": 0.7285, "E": 6.158, "F": 6.888}
{"compound": "CC1(C)CN(C(=O)c2cc(F)cc3[nH]cnc23)CCS1", "A": -5.387, "B": 15.22, "C": -26.23, "D": 1.369, "F": 1.58}
{"compound": "CC(C)N(C)CC(=O)Nc1ccc(-n2ccc(C(N)=O)n2)cc1", "A": -1.008, "B": 4.396, "C": 18.33, "D": -9.38, "E": 8.02, "F": 1.341}